In patent publication US20230384322A1, “COMPLEMENTOME ASSAY” (Complement Therapeutics Limited, priority 2020, published 2023):

Legend:
[1] = LC-SRM-MS quantification of FH, FHL-1 and FHR1-5 in plasma after GluC digestion; conditions: human subjects known not to have a complement-related disorder; derived from the mass spectrometry methods described herein
[2] = subjects known not to have a complement-related disorder, cited from earlier work

B1: FHR4: Complement Factor H-related 4 (FHR4A, FHR4B), SEQ ID NO:8 and 9 (protein, UniProt Q92496 20-578, looked up)
Complement factor H-related …: EVKPCDFPEIQHGGLYYKSLRRLYFPAAAGQSYSYYCDQNFVTPSGSYWDYIHCTQDGWSPTVPCLRTCSKSDVEIENGFISESSSIYILNEETQYNCKPGYATAEGNSSGSITCLQNGWSTQPICIKFCDMPVFENSRAKSNGMWFKLHDTLDYECYDGYESSYGNTTDSIVCGEDGWSHLPTCYNSSENCGPPPPISNGDTTSFPQKVYLPWSRVEYQCQSYYELQGSKYVTCSNGDWSEPPRCISMKPCEFPEIQHGHLYYENTRRPYFPVATGQSYSYYCDQNFVTPSGSYWDYIHCTQDGWLPTVPCLRTCSKSDIEIENGFISESSSIYILNKEIQYKCKPGYATADGNSSGSITCLQNGWSAQPICIKFCDMPVFENSRAKSNGMRFKLHDTLDYECYDGYEISYGNTTGSIVCGEDGWSHFPTCYNSSEKCGPPPPISNGDTTSFLLKVYVPQSRVEYQCQSYYELQGSNYVTCSNGEWSEPPRCIHPCIITEENMNKNNIQLKGKSDIKYYAKTGDTIEFMCKLGYNANTSVLSFQAVCREGIVEYPRCE
Mean reference value in human plasma [1]: 46.1 nM
Reference value in human blood ([2]; human blood): ≤ 5 µg/mL

B2: FHR5: Complement Factor H-related 5, SEQ ID NO:10 (protein)
chain: MLLLFSVILISWVSTVGGEGTLCDFPKIHHGFLYDEEDYNPFSQVPTGEVFYYSCEYNFVSPSKSFWTRITCTEEGWSPTPKCLRMCSFPFVKNGHSESSGLIHLEGDTVQIICNTGYSLQNNEKNISCVERGWSTPPICSFTKGECHVPILEANVDAQPKKESYKVGDVLKFSCRKNLIRVGSDSVQCYQFGWSPNFPTCKGQVRSCGPPPQLSNGEVKEIRKEEYGHNEVVEYDCNPNFIINGPKKIQCVDGEWTTLPTCVEQVKTCGYIPELEYGYVQPSVPPYQHGVSVEVNCRNEYAMIGNNMITCINGIWTELPMCVATHQLKRCKIAGVNIKTLLKLSGKEFNHNSRIRYRCSDIFRYRHSVCINGKWNPEVDCTEKREQFCPPPPQIPNAQNMTTTVNYQDGEKVAVLCKENYLLPEAKEIVCKDGRWQSLPRCVESTAYCGPPPSINNGDTTSFPLSVYPPGSTVTYRCQSFYKLQGSVTVTCRNKQWSEPPRCLDPCVVSEENMNKNNIQLKWRNDGKLYAKTGDAVEFQCKFPHKAMISSPPFRAICQEGKFEYPICE
Mean reference value in human plasma [1]: 29.2 nM
Reference value in human plasma [2]: ~1.5 µg/mL

B3: FHL-1: truncated form of FH comprising the first seven CCP domains, SEQ ID NO:2 (protein, listed as Homo sapiens)
chain: MRLLAKIICLMLWAICVAEDCNELPPRRNTEILTGSWSDQTYPEGTQAIYKCRPGYRSLGNVIMVCRKGEWVALNPLRKCQKRPCGHPGDTPFGTFTLTGGNVFEYGVKAVYTCNEGYQLLGEINYRECDTDGWTNDIPICEVVKCLPVTAPENGKIVSSAMEPDREYHFGQAVRFVCNSGYKIEGDEEMHCSDDGFWSKEKPKCVEISCKSPDVINGSPISQKIIYKENERFQYKCNMGYEYSERGDAVCTESGWRPLPSCEEKSCDNPYIPNGDYSPLRIKHRTGDEITYQCRNGFYPATRGNTAKCTSTGWIPAPRCTLKPCDYPDIKHGGLYHENMRRPYFPVAVGKYYSYYCDEHFETPSGSYWDHIHCTQDGWSPAVPCLRKCYFPYLENGYNQNYGRKFVQGKSIDVACHPGYALPKAQTTVTCMENGWSPTPRCIRVSFTL
Mean reference value in human plasma [1]: 10.9 nM

B4: FHR1: Complement Factor H-related 1, SEQ ID NO:3 (protein)
chain: MWLLVSVILISRISSVGGEATFCDFPKINHGILYDEEKYKPFSQVPTGEVFYYSCEYNFVSPSKSFWTRITCTEEGWSPTPKCLRLCFFPFVENGHSESSGQTHLEGDTVQIICNTGYRLQNNENNISCVERGWSTPPKCRSTDTSCVNPPTVQNAHILSRQMSKYPSGERVRYECRSPYEMFGDEEVMCLNGNWTEPPQCKDSTGKCGPPPPIDNGDITSFPLSVYAPASSVEYQCQNLYQLEGNKRITCRNGQWSEPPKCLHPCVISREIMENYNIALRWTAKQKLYLRTGESAEFVCKRGYRLSSRSHTLRTTCWDGKLEYPTCAKR
Mean reference value in human plasma [1]: 33.9 nM

B5: FHR2: Complement Factor H-related 2, SEQ ID NO:4 and 5 (protein, UniProt P36980 19-270, looked up)
Complement factor H-related …: EAMFCDFPKINHGILYDEEKYKPFSQVPTGEVFYYSCEYNFVSPSKSFWTRITCAEEGWSPTPKCLRLCFFPFVENGHSESSGQTHLEGDTVQIICNTGYRLQNNENNISCVERGWSTPPKCRSTISAEKCGPPPPIDNGDITSFLLSVYAPGSSVEYQCQNLYQLEGNNQITCRNGQWSEPPKCLDPCVISQEIMEKYNIKLKWTNQQKLYSRTGDIVEFVCKSGYHPTKSHSFRAMCQNGKLVYPSCEEK
Mean reference value in human plasma [1]: 51.2 nM
Reference value in human plasma [2]: 15 to 50 µg/mL

B6: FI: Human Complement Factor I, UniProt P05156, SEQ ID NO:11 (protein)
chain: MKLLHVFLLFLCFHLRFCKVTYTSQEDLVEKKCLAKKYTHLSCDKVFCQPWQRCIEGTCVCKLPYQCPKNGTAVCATNRRSFPTYCQQKSLECLHPGTKFLNNGTCTAEGKFSVSLKHGNTDSEGIVEVKLVDQDKTMFICKSSWSMREANVACLDLGFQQGADTQRRFKLSDLSINSTECLHVHCRGLETSLAECTFTKRRTMGYQDFADVVCYTQKADSPMDDFFQCVNGKYISQMKACDGINDCGDQSDELCCKACQGKGFHCKSGVCIPSQYQCNGEVDCITGEDEVGCAGFASVTQEETEILTADMDAERRRIKSLLPKLSCGVKNRMHIRRKRIVGGKRAQLGDLPWQVAIKDASGITCGGIYIGGCWILTAAHCLRASKTHRYQIWTTVVDWIHPDLKRIVIEYVDRIIFHENYNAGTYQNDIALIEMKKDGNKKDCELPRSIPACVPWSPYLFQPNDTCIVSGWGREKDNERVFSLQWGEVKLISNCSKFYGNRFYEKEMECAGTYDGSIDACKGDSGGPLVCMDANNVTYVWGVVSWGENCGKPEFPGVYTKVANYFDWISYHVGRPFISQYNV
Reference value in human plasma [2]: ~35 µg/mL

B7: FHR3: Complement Factor H-related 3, SEQ ID NO:6 and 7 (protein, UniProt Q02985 19-330, looked up)
Complement factor H-related …: QVKPCDFPDIKHGGLFHENMRRPYFPVAVGKYYSYYCDEHFETPSGSYWDYIHCTQNGWSPAVPCLRKCYFPYLENGYNQNYGRKFVQGNSTEVACHPGYGLPKAQTTVTCTEKGWSPTPRCIRVRTCSKSDIEIENGFISESSSIYILNKEIQYKCKPGYATADGNSSGSITCLQNGWSAQPICINSSEKCGPPPPISNGDTTSFLLKVYVPQSRVEYQCQPYYELQGSNYVTCSNGEWSEPPRCIHPCIITEENMNKNNIKLKGRSDRKYYAKTGDTIEFMCKLGYNANTSILSFQAVCREGIVEYPRCE
Mean reference value in human plasma [1]: 20.6 nM
